Consider one molecule from paper doi:10.1101/2022.04.06.487319 (bioRxiv, 2022).

These are yes or no findings as the source states them, for the method shown. Binding seen in cells or lysates may run through a third protein. Some binding calls cover weakened binding; strength is not graded here. Tags and fused reporters may be left off the sequences shown.

The test concerns the target T1, GFP-Mek1 (pGAL1::GFP-MEK1) (Saccharomyces cerevisiae) (UniProt P24719).
T1 sequence: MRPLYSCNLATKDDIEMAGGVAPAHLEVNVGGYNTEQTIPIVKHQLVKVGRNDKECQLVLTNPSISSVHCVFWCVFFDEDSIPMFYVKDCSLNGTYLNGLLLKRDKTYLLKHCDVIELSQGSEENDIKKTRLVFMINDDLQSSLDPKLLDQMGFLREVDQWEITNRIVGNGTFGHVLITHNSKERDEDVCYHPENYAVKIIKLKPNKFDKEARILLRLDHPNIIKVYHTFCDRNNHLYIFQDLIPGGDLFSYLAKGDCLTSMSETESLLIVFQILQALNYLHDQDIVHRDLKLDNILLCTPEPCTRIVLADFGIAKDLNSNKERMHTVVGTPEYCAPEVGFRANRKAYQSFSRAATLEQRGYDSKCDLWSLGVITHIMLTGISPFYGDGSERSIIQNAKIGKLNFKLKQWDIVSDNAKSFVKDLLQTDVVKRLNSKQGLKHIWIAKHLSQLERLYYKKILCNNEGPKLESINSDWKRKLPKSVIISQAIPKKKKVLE
Briefly: co-IP.

B1: Hop1 (pGAL1::HOP1), untagged (protein, UniProt P20050 1-605)
chain: MSNKQLVKPKTETKTEITTEQSQKLLQTMLTMSFGCLAFLRGLFPDDIFVDQRFVPEKVEKNYNKQNTSQNNSIKIKTLIRGKSAQADLLLDWLEKGVFKSIRLKCLKALSLGIFLEDPTDLLENYIFSFDYDEENNVNINVNLSGNKKGSKNADPENETISLLDSRRMVQQLMRRFIIITQSLEPLPQKKFLTMRLMFNDNVDEDYQPELFKDATFDKRATLKVPTNLDNDAIDVGTLNTKHHKVALSVLSAATSSMEKAGNTNFIRVDPFDLILQQQEENKLEESVPTKPQNFVTSQTTNVLGNLLNSSQASIQPTQFVSNNPVTGICSCECGLEVPKAATVLKTCKSCRKTLHGICYGNFLHSSIEKCFTCIFGPSLDTKWSKFQDLMMIRKVFRFLVRKKKGFPASITELIDSFINVEDQNNEVKERVAFALFVFFLDETLCLDNGGKPSQTIRYVTSSVLVDVKGIVIPNTRKQLNVNHEYKWHFTTSSPKAESFYQEVLPNSRKQVESWLQDITNLRKVYSEALSPSSTLQELDLNSSLPTQDPIISGQKRRRYDLDEYLEEDKSSVVNDTIKAKDFDESVPAKIRKISVSKKTLKSNW
Regarding B1, the binding result is given as “binds”.
